# Measured values: the supplement of paper PMC6411743
# ± gives the standard deviation of the averaged measurements. The list shows a part of the results, in another mix than the full data.
# Assays:
# Experiment in all cases: NP40-soluble protein abundance relative to vehicle (solubility fold change) (ratio); higher = more soluble protein in presence of ATP
# CALR = target: T1, CALR (UniProt P27797)
# T1 sequence (whole entry): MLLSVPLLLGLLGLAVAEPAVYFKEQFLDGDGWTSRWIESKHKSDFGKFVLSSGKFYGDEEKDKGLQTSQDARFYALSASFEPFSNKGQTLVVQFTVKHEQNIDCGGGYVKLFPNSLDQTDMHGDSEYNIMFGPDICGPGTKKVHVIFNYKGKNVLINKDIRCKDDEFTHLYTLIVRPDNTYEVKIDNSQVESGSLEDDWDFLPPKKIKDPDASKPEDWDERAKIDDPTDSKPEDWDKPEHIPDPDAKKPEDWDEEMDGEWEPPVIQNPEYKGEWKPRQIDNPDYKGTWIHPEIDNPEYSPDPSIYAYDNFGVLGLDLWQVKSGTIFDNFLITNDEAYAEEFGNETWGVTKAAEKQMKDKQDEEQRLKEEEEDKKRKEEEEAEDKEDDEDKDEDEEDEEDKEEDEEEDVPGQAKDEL
# Summary of the method: (§1)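 Values are fold changes against the detergent-processed vehicle, based on vsn-normalised intensities. Jurkat crude lysate was treated at eight concentrations from 0.1 to 10 mM (10 min at room temperature, then 3 min at 37 °C), solubilised with 0.8% NP40 and benzonase, ultracentrifuged and analysed by TMT-labelled LC-MS/MS over three independent experiments.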
# GALNS = target: T2, GALNS (UniProt P34059)
# T2 sequence (whole entry): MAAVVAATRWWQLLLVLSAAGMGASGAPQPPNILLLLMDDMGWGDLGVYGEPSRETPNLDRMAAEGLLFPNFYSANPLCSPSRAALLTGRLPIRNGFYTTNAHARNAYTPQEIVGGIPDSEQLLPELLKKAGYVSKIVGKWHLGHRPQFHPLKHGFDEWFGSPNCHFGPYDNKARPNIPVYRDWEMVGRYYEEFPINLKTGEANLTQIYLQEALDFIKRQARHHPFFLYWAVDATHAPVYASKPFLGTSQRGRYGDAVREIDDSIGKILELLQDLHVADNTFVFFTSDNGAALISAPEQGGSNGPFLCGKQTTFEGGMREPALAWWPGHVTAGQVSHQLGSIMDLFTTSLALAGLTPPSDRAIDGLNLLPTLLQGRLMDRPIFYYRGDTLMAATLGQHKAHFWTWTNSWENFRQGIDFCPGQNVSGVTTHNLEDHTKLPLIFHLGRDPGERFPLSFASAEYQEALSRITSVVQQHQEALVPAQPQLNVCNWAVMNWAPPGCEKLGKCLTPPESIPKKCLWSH
# Summary of the method: as §1
# GART = target: T3, GART (UniProt P22102)
# T3 sequence (whole entry): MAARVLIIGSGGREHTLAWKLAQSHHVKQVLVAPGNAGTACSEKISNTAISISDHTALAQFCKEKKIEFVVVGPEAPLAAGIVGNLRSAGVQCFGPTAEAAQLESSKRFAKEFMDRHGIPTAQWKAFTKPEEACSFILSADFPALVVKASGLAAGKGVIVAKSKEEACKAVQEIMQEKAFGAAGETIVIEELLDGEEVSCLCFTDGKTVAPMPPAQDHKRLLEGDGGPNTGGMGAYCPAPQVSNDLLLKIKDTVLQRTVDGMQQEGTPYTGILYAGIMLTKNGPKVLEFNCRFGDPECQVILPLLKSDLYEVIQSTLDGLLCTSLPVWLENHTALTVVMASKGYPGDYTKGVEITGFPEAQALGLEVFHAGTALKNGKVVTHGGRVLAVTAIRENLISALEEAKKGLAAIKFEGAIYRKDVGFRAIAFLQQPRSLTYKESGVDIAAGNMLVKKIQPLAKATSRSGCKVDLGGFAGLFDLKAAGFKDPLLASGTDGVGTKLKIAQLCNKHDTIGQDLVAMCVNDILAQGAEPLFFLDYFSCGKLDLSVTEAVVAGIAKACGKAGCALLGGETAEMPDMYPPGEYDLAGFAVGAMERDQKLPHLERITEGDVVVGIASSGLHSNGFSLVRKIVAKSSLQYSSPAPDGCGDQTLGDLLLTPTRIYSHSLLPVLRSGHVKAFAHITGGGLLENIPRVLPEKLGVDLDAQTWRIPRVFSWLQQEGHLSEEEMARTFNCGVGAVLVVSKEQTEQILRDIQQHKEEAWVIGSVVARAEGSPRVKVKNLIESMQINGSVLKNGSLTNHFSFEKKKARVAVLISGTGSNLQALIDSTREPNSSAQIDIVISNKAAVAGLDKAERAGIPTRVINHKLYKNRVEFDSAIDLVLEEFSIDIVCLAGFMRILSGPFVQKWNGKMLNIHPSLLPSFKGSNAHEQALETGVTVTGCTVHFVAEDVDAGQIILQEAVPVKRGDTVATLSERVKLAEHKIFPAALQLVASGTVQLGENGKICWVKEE
# Summary of the method: as §1
# GSTM3 = target: T4, GSTM3 (UniProt P21266)
# T4 sequence (whole entry): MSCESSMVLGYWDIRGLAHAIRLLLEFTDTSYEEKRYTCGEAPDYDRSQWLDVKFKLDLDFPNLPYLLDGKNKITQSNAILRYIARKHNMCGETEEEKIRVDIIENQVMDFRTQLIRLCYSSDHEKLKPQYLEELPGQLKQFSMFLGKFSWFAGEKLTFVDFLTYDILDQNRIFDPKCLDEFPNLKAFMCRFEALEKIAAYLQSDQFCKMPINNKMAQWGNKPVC
# Summary of the method: as §1
# JUND = target: T5, JUND (UniProt P17535)
# T5 sequence (whole entry): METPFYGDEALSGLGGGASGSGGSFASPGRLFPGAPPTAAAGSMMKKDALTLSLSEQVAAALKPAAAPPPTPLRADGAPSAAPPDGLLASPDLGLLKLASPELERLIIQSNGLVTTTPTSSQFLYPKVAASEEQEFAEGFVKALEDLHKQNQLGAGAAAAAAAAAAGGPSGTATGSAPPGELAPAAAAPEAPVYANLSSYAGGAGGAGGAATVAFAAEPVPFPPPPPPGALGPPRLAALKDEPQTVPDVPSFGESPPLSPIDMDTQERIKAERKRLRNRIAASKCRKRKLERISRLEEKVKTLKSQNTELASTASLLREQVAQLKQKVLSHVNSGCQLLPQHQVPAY
# Summary of the method: as §1
# PHB = target: T6, PHB (UniProt P35232)
# T6 sequence (whole entry): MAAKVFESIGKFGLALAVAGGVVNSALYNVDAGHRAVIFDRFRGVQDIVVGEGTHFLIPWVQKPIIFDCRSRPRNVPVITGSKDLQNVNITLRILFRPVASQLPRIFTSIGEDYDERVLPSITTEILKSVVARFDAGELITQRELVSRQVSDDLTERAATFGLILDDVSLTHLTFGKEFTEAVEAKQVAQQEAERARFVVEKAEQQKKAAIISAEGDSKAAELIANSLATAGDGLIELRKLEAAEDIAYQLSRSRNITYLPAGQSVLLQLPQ
# Summary of the method: as §1
compound,measurement,setting,value
Nc1ncnc2c1ncn2[C@@H]1O[C@H](COP(=O)(O)OP(=O)(O)OP(=O)(O)O)[C@@H](O)[C@H]1O [adenosine triphosphate],NP40-soluble protein abundance,CALR; concentration: 1mM,0.933 ± 0.075
same,NP40-soluble protein abundance,CALR; concentration: 2mM,0.911 ± 0.042
same,NP40-soluble protein abundance,CALR; concentration: 4mM,0.871 ± 0.026
same,NP40-soluble protein abundance,CALR; concentration: 6mM,0.942 ± 0.037
same,NP40-soluble protein abundance,CALR; concentration: 8mM,0.882 ± 0.05
same,NP40-soluble protein abundance,CALR; concentration: 10mM,0.903 ± 0.054
same,NP40-soluble protein abundance,GALNS; concentration: 1mM,1 ± 0.06
same,NP40-soluble protein abundance,GALNS; concentration: 2mM,0.963 ± 0.013
same,NP40-soluble protein abundance,GALNS; concentration: 4mM,0.929 ± 0.038
same,NP40-soluble protein abundance,GALNS; concentration: 6mM,0.929 ± 0.014
same,NP40-soluble protein abundance,GALNS; concentration: 8mM,0.885 ± 0.05
same,NP40-soluble protein abundance,GALNS; concentration: 10mM,0.958 ± 0.04
same,NP40-soluble protein abundance,GART; concentration: 1mM,0.988 ± 0.043
same,NP40-soluble protein abundance,GART; concentration: 2mM,0.97 ± 0.035
same,NP40-soluble protein abundance,GART; concentration: 4mM,0.943 ± 0.039
same,NP40-soluble protein abundance,GART; concentration: 6mM,0.924 ± 0.069
same,NP40-soluble protein abundance,GART; concentration: 8mM,0.942 ± 0.034
same,NP40-soluble protein abundance,GART; concentration: 10mM,0.953 ± 0.048
same,NP40-soluble protein abundance,GSTM3; concentration: 1mM,0.969 ± 0.12
same,NP40-soluble protein abundance,GSTM3; concentration: 2mM,0.968 ± 0.12
same,NP40-soluble protein abundance,GSTM3; concentration: 4mM,0.97 ± 0.1
same,NP40-soluble protein abundance,GSTM3; concentration: 6mM,0.879 ± 0.15
same,NP40-soluble protein abundance,GSTM3; concentration: 8mM,0.953 ± 0.081
same,NP40-soluble protein abundance,GSTM3; concentration: 10mM,0.941 ± 0.11
same,NP40-soluble protein abundance,JUND; concentration: 1mM,0.951 ± 0.18
same,NP40-soluble protein abundance,JUND; concentration: 2mM,0.888 ± 0.12
same,NP40-soluble protein abundance,JUND; concentration: 4mM,0.868 ± 0.07
same,NP40-soluble protein abundance,JUND; concentration: 6mM,0.944 ± 0.1
same,NP40-soluble protein abundance,JUND; concentration: 8mM,0.817 ± 0.081
same,NP40-soluble protein abundance,JUND; concentration: 10mM,0.761 ± 0.13
same,NP40-soluble protein abundance,PHB; concentration: 1mM,0.94 ± 0.035
same,NP40-soluble protein abundance,PHB; concentration: 2mM,0.91 ± 0.011
same,NP40-soluble protein abundance,PHB; concentration: 4mM,0.878 ± 0.034
same,NP40-soluble protein abundance,PHB; concentration: 6mM,0.923 ± 0.043
same,NP40-soluble protein abundance,PHB; concentration: 8mM,0.913 ± 0.029
same,NP40-soluble protein abundance,PHB; concentration: 10mM,0.904 ± 0.028

# Reformatted bar-delimited: entries from further up
compound | measurement | setting | value
Nc1ncnc2c1ncn2[C@@H]1O[C@H](COP(=O)(O)OP(=O)(O)OP(=O)(O)O)[C@@H](O)[C@H]1O [adenosine triphosphate] | NP40-soluble protein abundance | GART; concentration: 4mM | 0.943 ± 0.039
same | NP40-soluble protein abundance | JUND; concentration: 8mM | 0.817 ± 0.081
same | NP40-soluble protein abundance | JUND; concentration: 10mM | 0.761 ± 0.13
